{"source": "patent US20040223977A1", "about": "“Fusion peptide HIV vaccines” (City of Hope, priority 2003, published 2004)", "key": {"[1]": {"system": "IV9 peptide-loaded T2 cells", "assay_type": "in vivo, transgenic HLA A2/K^b mice"}, "[2]": {"system": "IV9 peptide-loaded T2 cells", "settings": "for specific lysis: no adjuvant, E:T 25:1"}, "[3]": {"system": "target cells loaded with NV9", "assay": "Chromium release assay with splenocytes of immunized mice, irrelevant NV9-loaded target cells", "assay_type": "in vivo, transgenic HLA A2/K^b mice", "settings": "any group: 10 to 50 nmoles, alone or with 25 μg ODN 1826"}}, "note": "Entries after “also recorded” stand apart in the source; their conditions may differ. Like-named read-outs stand apart in the source and are kept apart here. Not every detail of the peptide structures is certain; ends, links or a residue may be inferred. Square brackets hold non-standard residues; d marks the D form. Peptide text beside a SMILES is read from it. Cha = N[C@@H](CC1CCCCC1)C(=O)O"}
{"compound": "CC[C@H](C)[C@H](NC(=O)[C@H](C)NC(=O)[C@H](C)NC(=O)[C@H](C)NC(=O)[C@H](CCCCN)NC(=O)[C@H](CC(C)C)NC(=O)[C@@H](NC(=O)[C@H](Cc1c[nH]c2ccccc12)NC(=O)[C@H](C)NC(=O)[C@H](C)NC(=O)[C@@H](NC(=O)[C@H](CC1CCCCC1)NC(=O)[C@H](CCCCN)NC(=O)[C@H](C)N)C(C)C)[C@@H](C)O)C(=O)N[C@@H](CC(C)C)C(=O)N[C@@H](CCCCN)C(=O)N[C@@H](CCC(=O)O)C(=O)N1CCC[C@H]1C(=O)N[C@H](C(=O)N[C@@H](Cc1c[nH]cn1)C(=O)NCC(=O)N[C@H](C(=O)O)C(C)C)C(C)C", "note": "[PADRE-IV9, AKXVAAWTLKAAAILKEPVHGV] (H-AK[Cha]VAAWTLKAAAILKEPVHGV-OH)", "values": [{"measurement": "CTL activity", "setting": "[1]; 50 nmoles with 25 μg ODN 1826, intranasal or intrarectal route, single dose, listed as fusion peptide", "result": "Potent CTL activity; also recorded: markedly enhanced"}, {"measurement": "lytic activity", "setting": "[1]; 50 nmoles, absence of CpG DNA, intranasal or intrarectal route, single dose, listed as fusion peptide", "result": "no lytic activity; also recorded: failed to induce peptide-specific cytolysis"}, {"measurement": "increase of cytotoxicity compared to fusion peptide alone", "setting": "[1]; with 25 μg CpG DNA, E:T ratio of 100, single mucosal administration", "result": "approximately 50 fold"}, {"measurement": "stimulation in the presence of CpG DNA", "setting": "[2]; 10 nmoles", "result": "~3", "unit": "fold"}, {"measurement": "stimulation in the presence of CpG DNA", "setting": "[2]; 25 nmoles", "result": "~3.5", "unit": "fold"}, {"measurement": "stimulation in the presence of CpG DNA", "setting": "[2]; 50 nmoles", "result": "~5", "unit": "fold"}, {"measurement": "specific lysis", "setting": "[2]; 50 nmoles in saline, single s.c. dose", "result": "approximately 10%"}, {"measurement": "cytolytic activity", "setting": "[2]; 50 nmoles in the absence of DNA", "result": "No significant cytolytic activity"}, {"measurement": "specific lysis", "setting": "[2]; 100 nmoles in saline, single s.c. dose", "result": "approximately 50%"}, {"measurement": "peptide-specific cytotoxicity / CTL response", "setting": "[2]; 100 nmoles with 50 μg ODN 1826 in saline, single s.c. dose, E:T 25:1, 6:1, 3:1", "result": "extremely high levels of peptide-specific cytotoxicity"}, {"measurement": "CTL responses", "setting": "[2]; 10 to 50 nmoles in saline, absence of DNA", "result": "minimal CTL responses"}, {"measurement": "CTL responses", "setting": "[2]; formulated with IFA (data not shown)", "result": "CTL responses were observed"}, {"measurement": "lysis", "setting": "[2]; fusion peptide (50 nmoles) and CpG DNA (25 μg ODN 1826), E:T ratio of 100", "result": "approximately 80%"}, {"measurement": "CTL response", "setting": "[2]; single parenteral injection of 100 nmoles in normal (0.9%) saline, no extraneous adjuvant", "result": "vigorous CTL response"}, {"measurement": "CTL responses", "setting": "[2]; with 25 μg ODN 1826, immunogen doses as low as 10 nmoles", "result": "markedly enhanced"}, {"measurement": "cytolytic activity against irrelevant NV9-loaded targets", "setting": "[3]", "result": "No cytolytic activity"}]}
